Marks after values point to notes of the source that are not given here. Residues, ends and D or L forms follow the SMILES beside them. No end group written: not given here.
These molecules were tested on all 16 microbial strains. Details: MHC/GM; larger values indicate greater antimicrobial specificity.
Method: The antibacterial activities of the peptides against Gram-negative, Gram-positive and antibiotic-resistant bacterial strains were evaluated using the microbroth dilution method (Park et al. [2003]). Aliquots of culture medium containing bacterial suspensions in mid-logarithmic phase at a concentration of 2 × 10^5 colony forming units (CFU)/ml were added to each well of a multiwell plate containing peptide solution serially diluted 2× in 10 mM sodium phosphate buffer (pH 7.2) or phosphate-buffered saline (PBS, 1.5 mM KH2PO4, 2.7 mM KCl, 8.1 mM Na2HPO4, 150 mM NaCl, pH 7.2). Growth inhibition was evaluated by measuring the absorbance at 620 nm using a Versa-Max microplate Elisa Reader (Molecular Devices Co., Sunnyvale, CA, USA) after 24 h of incubation at 37° C.

Molecule | Therapeutic index
NCCCC[C@H](NC(=O)[C@H](Cc1c[nH]c2ccccc12)NC(=O)[C@@H](N)CCCCN)C(=O)N[C@@H](Cc1c[nH]c2ccccc12)C(N)=O [(KW)2, KWKW-NH2] (H-KWKW-NH2) | 1.4
CC[C@H](C)[C@H](NC(=O)CN)C(=O)NCC(=O)N[C@@H](C)C(=O)N[C@H](C(=O)N[C@@H](CC(C)C)C(=O)N[C@@H](CCCCN)C(=O)N[C@H](C(=O)N[C@@H](CC(C)C)C(=O)N[C@H](C(=O)N[C@H](C(=O)NCC(=O)N[C@@H](CC(C)C)C(=O)N1CCC[C@H]1C(=O)N[C@@H](C)C(=O)N[C@@H](CC(C)C)C(=O)N[C@H](C(=O)N[C@@H](CO)C(=O)N[C@@H](Cc1c[nH]c2ccccc12)C(=O)N[C@H](C(=O)N[C@@H](CCCCN)C(=O)N[C@@H](CCCNC(=N)N)C(=O)N[C@@H](CCCCN)C(=O)N[C@@H](CCCNC(=N)N)C(=O)N[C@@H](CCC(N)=O)C(=O)N[C@@H](CCC(N)=O)C(N)=O)[C@@H](C)CC)[C@@H](C)CC)[C@@H](C)O)[C@@H](C)O)C(C)C)C(C)C [Melittin, reference compound] | 0.1
KWKWKW-NH2 [(KW)3, KWKWKW-NH2] | 2.1
KWKWKWKW-NH2 [(KW)4, KWKWKWKW-NH2] | 19.8 ^h
KWKWKWKWKW-NH2 [(KW)5, KWKWKWKWKW-NH2] | 4.5

Reference: article PMC3549253, “Effect of repetitive lysine–tryptophan motifs on the bactericidal activity of antimicrobial peptides” (Amino Acids, 2012)
